Experimental data taken from US20020028487A1.
These are yes or no findings as the source states them, for the method shown. Some entries that bind do so weakly or less than the wild type.

Amino acid sequences for entries named in this document (tags omitted). Residues count along the entry.
GST-p300^744-1571 (Q09472, residues 744-1571): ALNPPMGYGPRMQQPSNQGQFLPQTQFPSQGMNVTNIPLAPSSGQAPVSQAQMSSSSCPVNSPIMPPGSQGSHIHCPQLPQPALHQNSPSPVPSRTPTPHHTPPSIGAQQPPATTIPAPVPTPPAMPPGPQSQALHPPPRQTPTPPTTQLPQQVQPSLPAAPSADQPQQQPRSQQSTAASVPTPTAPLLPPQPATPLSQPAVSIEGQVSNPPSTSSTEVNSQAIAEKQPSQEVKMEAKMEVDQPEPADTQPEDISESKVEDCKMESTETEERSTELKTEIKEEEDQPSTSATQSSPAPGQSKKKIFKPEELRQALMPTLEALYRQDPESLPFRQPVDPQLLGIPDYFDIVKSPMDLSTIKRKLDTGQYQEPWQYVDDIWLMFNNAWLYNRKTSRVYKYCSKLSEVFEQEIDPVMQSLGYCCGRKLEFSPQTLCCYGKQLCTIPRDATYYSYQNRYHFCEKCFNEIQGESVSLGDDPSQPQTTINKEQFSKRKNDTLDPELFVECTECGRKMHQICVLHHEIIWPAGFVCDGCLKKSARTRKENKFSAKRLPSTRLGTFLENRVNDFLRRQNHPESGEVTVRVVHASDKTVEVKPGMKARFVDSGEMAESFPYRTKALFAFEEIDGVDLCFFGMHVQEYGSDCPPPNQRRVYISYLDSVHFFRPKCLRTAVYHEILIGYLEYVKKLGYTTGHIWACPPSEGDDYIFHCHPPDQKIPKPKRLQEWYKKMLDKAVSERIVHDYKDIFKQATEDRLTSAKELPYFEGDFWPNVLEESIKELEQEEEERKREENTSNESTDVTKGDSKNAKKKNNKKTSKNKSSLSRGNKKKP
GST-p300^1572-2370 (Q09472, residues 1572-2370): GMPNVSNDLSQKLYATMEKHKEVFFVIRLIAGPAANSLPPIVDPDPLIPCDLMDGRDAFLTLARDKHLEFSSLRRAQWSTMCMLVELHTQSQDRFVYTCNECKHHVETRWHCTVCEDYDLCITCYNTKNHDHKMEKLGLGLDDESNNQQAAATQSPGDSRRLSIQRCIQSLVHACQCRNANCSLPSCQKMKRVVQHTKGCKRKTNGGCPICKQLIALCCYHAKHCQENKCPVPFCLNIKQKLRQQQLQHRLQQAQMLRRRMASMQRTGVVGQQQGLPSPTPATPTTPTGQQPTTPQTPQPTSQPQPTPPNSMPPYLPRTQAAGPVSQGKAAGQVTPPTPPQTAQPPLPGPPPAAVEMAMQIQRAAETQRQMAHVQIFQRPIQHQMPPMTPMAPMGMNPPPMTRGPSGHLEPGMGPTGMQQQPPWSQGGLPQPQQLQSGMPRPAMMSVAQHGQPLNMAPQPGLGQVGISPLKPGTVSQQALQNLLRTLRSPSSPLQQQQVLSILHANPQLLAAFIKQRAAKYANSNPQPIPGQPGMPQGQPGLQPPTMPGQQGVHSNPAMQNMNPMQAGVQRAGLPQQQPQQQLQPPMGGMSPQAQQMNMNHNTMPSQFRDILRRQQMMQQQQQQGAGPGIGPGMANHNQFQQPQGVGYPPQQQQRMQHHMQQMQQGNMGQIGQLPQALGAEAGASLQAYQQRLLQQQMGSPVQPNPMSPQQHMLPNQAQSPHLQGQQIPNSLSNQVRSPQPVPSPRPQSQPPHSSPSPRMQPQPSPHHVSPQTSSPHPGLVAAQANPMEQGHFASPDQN

Legend:
GST-p300^1572-2370 [1] = target: GST-p300^1572-2370 (UniProt Q09472); assay: GST pull-down of in vitro translated protein
GST-p300^744-1571 [2] = target: GST-p300^744-1571 (UniProt Q09472); assay: GST pull-down of in vitro translated protein
GST-p300^1572-2370 [3] = target: GST-p300^1572-2370 (UniProt Q09472); assay: GST pull-down of in vitro translated protein, SDS-PAGE and autoradiography
GST-p300^744-1571 [4] = target: GST-p300^744-1571 (UniProt Q09472); assay: as above

binding (GST-p300^1572-2370 [1]): binds
binding (GST-p300^744-1571 [2]): binds
binding (GST-p300^1572-2370 [3]): binds
binding (GST-p300^744-1571 [4]): binds
B1: JMY^335-588 (protein)
chain: ELLDKHKTIESMVELLDLYQMEDEAYSSLAEATTELYQYLLQPFRDMRELAMLRRQQIKISMENDYLGPRRIESLQKEDADWQRKAHMAVLSIQDLTVKYFEITAKAQKAVYDRMRADQKKFGKASWAAAAERMEKLQYAVSKETLQMMRAKEICLEQKKHALKEEMQSLQGGTEAIARLDQLESDYYDLQLQLYEVQFEILKCEELLLTAQLESIKRLISEKRDEVVYYDTYESMEAMLEKEEMAASVHAQRE
